Results: US9133187B2, “Serine/threonine kinase inhibitors” (ARRAY BIOPHARMA INC., priority 2011, dated 2015)
The match of structure and compound is tentative.

The chains behind the UniProt entries cited, without tags or fusion partners. Residues count along the entry.
UniProt P28482, 8-360 limits assumed: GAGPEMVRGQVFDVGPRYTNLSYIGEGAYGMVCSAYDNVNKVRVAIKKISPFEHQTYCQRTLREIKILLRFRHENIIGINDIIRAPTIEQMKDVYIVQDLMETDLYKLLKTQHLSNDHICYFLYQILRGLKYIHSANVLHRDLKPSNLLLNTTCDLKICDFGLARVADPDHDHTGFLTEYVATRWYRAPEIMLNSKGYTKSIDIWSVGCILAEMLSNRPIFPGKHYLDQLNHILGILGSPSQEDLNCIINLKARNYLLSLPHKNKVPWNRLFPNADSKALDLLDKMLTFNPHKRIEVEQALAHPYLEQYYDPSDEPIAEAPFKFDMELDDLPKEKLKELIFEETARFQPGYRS

What was measured:
[1] = system: PMA-stimulated P90RSK(Ser380) phosphorylation in HepG2 cells; assay: Cellular P90RSK(Ser380) Phosphorylation Assay; conditions: read-out: Cell Assay IC50, 1.5 h compound incubation, PMA stimulation, pP90RSK(Ser380) normalized to GAPDH
[2] = target: human ERK-2 (Mitogen Activated Kinase 1) (Homo sapiens (Human), UniProt P28482); assay: ERK-2 Enzymatic Assay; assay type: biochemical; conditions: read-out: ERK Inhibition IC50; 5 nM ERK-2, 25 μM ATP, Omnia peptide S/T17

In the case of `C[C@@H](Nc1ncc2c(n1)O[C@@H](C(=O)N[C@H](CO)c1ccc(OC(F)F)cc1)CC2)C1CC1`, the IC50 [1] is reported as 1300 nM and the IC50 [2] is reported as 109 nM.
